Measured values from publication PMC5838220.

The chains behind the UniProt entries cited, without tags or fusion partners. Where a name states a change or a piece, a line headed by the entry shows the natural chain unless it says otherwise.
UniProt Q8IVH8: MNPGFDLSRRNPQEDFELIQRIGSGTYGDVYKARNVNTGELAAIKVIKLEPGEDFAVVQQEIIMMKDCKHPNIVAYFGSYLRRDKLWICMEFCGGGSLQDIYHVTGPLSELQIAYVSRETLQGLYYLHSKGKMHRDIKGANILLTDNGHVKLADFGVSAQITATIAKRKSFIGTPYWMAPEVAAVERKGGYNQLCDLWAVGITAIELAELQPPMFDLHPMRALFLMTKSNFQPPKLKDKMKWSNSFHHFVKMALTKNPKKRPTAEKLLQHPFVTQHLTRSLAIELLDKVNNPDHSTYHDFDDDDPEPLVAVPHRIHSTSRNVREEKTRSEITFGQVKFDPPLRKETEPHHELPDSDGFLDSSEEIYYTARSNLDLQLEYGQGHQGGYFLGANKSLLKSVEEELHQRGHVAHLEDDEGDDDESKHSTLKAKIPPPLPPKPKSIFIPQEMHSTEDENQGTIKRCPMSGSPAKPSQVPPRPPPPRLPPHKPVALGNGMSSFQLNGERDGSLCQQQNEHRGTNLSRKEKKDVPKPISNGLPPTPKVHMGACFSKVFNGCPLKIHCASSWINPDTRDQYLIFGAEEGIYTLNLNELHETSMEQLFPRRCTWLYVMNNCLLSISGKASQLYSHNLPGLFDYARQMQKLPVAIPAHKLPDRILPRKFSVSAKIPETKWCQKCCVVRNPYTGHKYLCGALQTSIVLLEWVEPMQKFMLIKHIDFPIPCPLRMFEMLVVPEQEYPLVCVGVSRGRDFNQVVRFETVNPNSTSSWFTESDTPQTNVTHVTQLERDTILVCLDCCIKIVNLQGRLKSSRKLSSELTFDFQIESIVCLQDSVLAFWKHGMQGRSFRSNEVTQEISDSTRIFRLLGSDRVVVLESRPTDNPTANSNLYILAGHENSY

How the values were obtained:
[1] = biological target: endogenous TFEB (human (endogenous in HEK293A)) (UniProt P19484); experiment: co-IP; HEK293A cells transfected with FLAG-tagged WT-MAP4K3, KD-MAP4K3 or HDAC6; endogenous TFEB immunoprecipitated and blotted for MAP4K3 (text; the legend says FLAG immunoprecipitates)
[2] = biological target: recombinant TFEB generated by in vitro transcription and translation (UniProt P19484); experiment: pull-down; FLAG immunoprecipitates (purified FLAG-tagged proteins from transfected HEK293A) incubated with in vitro transcribed and translated TFEB; pulled down with an anti-TFEB antibody, immunoblotted; only the binder purified
[3] = biological target: T1, recombinant GST-TFEB amino acids 1-37 (UniProt P19484); experiment: pull-down; FLAG immunoprecipitates from transfected HEK293A incubated with recombinant GST-TFEB aa 1-37 or GST alone, then mixed with beads; eluate of GST-bound fractions blotted with anti-FLAG and anti-GST; both purified
T1 sequence: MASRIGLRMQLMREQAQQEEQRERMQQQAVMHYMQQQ

Measured: binding

kinase dead (KD)-MAP4K3-FLAG (from UniProt Q8IVH8) (enzyme)
binds: [1] | [2] | [3]

Results are given in words; binding and its absence hold for the method and conditions named. Binding calls can cover weak binding; strength is not graded here. For part of these data: Where a sequence is shown, tags or fusion partners need not be part of it. For part of these data: In cells and extracts the contact can be indirect.
